The text below walks through data of article PMC4808027.

Chains of the proteins cited; added tags and fusions are not shown.
UniProt O95817: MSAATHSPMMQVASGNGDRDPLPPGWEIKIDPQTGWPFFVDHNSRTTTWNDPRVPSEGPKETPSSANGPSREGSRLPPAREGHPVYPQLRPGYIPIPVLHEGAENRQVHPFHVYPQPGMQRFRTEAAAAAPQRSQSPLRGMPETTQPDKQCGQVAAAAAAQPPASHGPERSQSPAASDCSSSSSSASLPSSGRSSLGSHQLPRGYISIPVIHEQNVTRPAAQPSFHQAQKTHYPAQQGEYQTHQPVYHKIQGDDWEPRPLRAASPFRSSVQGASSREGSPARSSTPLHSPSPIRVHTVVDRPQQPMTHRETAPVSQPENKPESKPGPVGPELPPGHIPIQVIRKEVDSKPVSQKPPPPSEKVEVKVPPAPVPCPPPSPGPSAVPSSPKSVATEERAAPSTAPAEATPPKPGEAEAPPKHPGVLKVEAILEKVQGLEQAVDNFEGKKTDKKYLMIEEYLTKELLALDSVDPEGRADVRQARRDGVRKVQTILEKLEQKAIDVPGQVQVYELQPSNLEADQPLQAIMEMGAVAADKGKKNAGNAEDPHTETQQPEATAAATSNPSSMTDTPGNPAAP
UniProt P11413: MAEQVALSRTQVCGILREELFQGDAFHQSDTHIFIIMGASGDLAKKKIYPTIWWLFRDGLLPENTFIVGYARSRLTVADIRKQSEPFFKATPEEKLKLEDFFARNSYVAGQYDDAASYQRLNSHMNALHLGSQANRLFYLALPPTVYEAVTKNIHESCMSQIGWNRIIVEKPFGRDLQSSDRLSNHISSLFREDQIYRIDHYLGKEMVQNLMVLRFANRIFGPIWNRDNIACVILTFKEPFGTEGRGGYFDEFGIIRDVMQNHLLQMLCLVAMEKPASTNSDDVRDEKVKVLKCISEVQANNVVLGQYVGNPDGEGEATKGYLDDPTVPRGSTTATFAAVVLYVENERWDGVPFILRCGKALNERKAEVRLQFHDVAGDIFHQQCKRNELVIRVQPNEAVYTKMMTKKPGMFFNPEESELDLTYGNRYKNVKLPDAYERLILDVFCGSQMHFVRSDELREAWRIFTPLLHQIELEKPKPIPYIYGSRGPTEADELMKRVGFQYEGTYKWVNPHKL

Results are given in words; binding and its absence hold for the method and conditions named. Binding seen in cells or lysates may run through a third protein. These calls come from enrichment with a bait or labelling near it, and not all partners need be listed.

For the test, the target named is Flag-tagged BAG3 (Bcl-2 associated athanogene 3) (UniProt O95817). As to the kind of experiment: affinity purification with mass spectrometry; anti-Flag immunoprecipitation from HEK293 cells transfected with Flag-BAG3; SDS-PAGE, Coomassie blue, band of about 60 kDa analysed by peptide mass fingerprinting (MALDI-TOF).

On to “glucose 6 phosphate dehydrogenase (G6PD), endogenous in HEK293 (from UniProt P11413 1-515) (enzyme)”, for which the binding result is reported as “binds”.
